The text below walks through data of doi:10.1101/2021.10.26.465776.

Results are given in words; binding and its absence hold for the method and conditions named. Binding seen in cells or lysates may run through a third protein. These calls come from enrichment with a bait or labelling near it, and not all partners need be listed. Sequences can lack the tags named with a protein.

This test concerns the target T1, BirA-tagged Aladin (human) (UniProt Q9NRG9).
T1 sequence: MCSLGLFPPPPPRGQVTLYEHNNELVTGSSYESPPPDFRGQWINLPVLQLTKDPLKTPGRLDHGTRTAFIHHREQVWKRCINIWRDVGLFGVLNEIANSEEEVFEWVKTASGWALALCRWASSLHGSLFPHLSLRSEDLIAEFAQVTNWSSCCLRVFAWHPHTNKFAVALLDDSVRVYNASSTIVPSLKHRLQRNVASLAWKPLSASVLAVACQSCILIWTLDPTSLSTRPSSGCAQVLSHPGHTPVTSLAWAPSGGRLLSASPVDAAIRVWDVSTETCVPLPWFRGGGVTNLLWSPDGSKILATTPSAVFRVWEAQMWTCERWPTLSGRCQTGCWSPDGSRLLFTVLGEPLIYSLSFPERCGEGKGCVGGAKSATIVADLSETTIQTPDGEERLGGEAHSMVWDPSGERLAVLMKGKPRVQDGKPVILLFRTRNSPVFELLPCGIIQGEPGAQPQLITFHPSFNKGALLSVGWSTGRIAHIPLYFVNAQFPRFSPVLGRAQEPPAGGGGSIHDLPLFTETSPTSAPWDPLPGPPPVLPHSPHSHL
The test is described as follows: proximity labelling.

B1: NDC1 (protein, UniProt Q9BTX1 1-674)
chain: MATAVSRPCAGRSRDILWRVLGWRIVASIVWSVLFLPICTTVFIIFSRIDLFHPIQWLSDSFSDLYSSYVIFYFLLLSVVIIIISIFNVEFYAVVPSIPCSRLALIGKIIHPQQLMHSFIHAAMGMVMAWCAAVITQGQYSFLVVPCTGTNSFGSPAAQTCLNEYHLFFLLTGAFMGYSYSLLYFVNNMNYLPFPIIQQYKFLRFRRSLLLLVKHSCVESLFLVRNFCILYYFLGYIPKAWISTAMNLHIDEQVHRPLDTVSGLLNLSLLYHVWLCGVFLLTTWYVSWILFKIYATEAHVFPVQPPFAEGSDECLPKVLNSNPPPIIKYLALQDLMLLSQYSPSRRQEVFSLSQPGGHPHNWTAISRECLNLLNGMTQKLILYQEAAATNGRVSSSYPVEPKKLNSPEETAFQTPKSSQMPRPSVPPLVKTSLFSSKLSTPDVVSPFGTPFGSSVMNRMAGIFDVNTCYGSPQSPQLIRRGPRLWTSASDQQMTEFSNPSPSTSISAEGKTMRQPSVIYSWIQNKREQIKNFLSKRVLIMYFFSKHPEASIQAVFSDAQMHIWALEGLSHLVAASFTEDRFGVVQTTLPAILNTLLTLQEAVDKYFKLPHASSKPPRISGSLVDTSYKTLRFAFRASLKTAIYRITTTFGEHLNAVQASAEHQKRLQQFLEFKE
B1: the binding entry is recorded as “binds”.

B2: Nup35 (protein, UniProt Q8NFH5 1-326)
chain: MAAFAVEPQGPALGSEPMMLGSPTSPKPGVNAQFLPGFLMGDLPAPVTPQPRSISGPSVGVMEMRSPLLAGGSPPQPVVPAHKDKSGAPPVRSIYDDISSPGLGSTPLTSRRQPNISVMQSPLVGVTSTPGTGQSMFSPASIGQPRKTTLSPAQLDPFYTQGDSLTSEDHLDDSWVTVFGFPQASASYILLQFAQYGNILKHVMSNTGNWMHIRYQSKLQARKALSKDGRIFGESIMIGVKPCIDKSVMESSDRCALSSPSLAFTPPIKTLGTPTQPGSTPRISTMRPLATAYKASTSDYQVISDRQTPKKDESLVSKAMEYMFGW
Consider B2, for which the binding result is “binds”.
